Laboratory results: the supplement of paper PMC10849652
The list shows a part of the results. Residues, ends and D or L forms follow the SMILES beside them. *: point of attachment. Cbz = O=C(OCc1ccccc1)*

By UniProt entry, the sequences of proteins in these tests, tags left out. Where a name states a change or a piece, a line headed by the entry shows the natural chain unless it says otherwise.
UniProt O75191: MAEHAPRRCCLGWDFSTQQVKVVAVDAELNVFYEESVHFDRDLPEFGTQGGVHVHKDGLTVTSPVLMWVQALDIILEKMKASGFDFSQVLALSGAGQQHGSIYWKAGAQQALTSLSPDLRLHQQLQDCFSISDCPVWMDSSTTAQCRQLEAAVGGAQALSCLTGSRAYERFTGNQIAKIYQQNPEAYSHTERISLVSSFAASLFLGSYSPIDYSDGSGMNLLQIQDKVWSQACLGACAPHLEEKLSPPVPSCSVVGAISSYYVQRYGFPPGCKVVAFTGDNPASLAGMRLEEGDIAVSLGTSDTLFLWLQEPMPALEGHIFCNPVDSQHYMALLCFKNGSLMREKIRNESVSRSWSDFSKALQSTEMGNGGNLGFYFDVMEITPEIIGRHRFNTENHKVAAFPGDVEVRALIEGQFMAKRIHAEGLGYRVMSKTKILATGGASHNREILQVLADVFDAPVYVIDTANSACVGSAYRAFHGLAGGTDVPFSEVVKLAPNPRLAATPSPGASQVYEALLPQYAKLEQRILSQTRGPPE
UniProt O76080: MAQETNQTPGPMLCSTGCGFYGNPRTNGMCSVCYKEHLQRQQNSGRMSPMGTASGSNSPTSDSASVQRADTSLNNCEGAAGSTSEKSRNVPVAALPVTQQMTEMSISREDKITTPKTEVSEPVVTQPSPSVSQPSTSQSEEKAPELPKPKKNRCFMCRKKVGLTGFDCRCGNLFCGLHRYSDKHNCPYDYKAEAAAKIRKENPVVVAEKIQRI
UniProt P25490, whole entry, looked up: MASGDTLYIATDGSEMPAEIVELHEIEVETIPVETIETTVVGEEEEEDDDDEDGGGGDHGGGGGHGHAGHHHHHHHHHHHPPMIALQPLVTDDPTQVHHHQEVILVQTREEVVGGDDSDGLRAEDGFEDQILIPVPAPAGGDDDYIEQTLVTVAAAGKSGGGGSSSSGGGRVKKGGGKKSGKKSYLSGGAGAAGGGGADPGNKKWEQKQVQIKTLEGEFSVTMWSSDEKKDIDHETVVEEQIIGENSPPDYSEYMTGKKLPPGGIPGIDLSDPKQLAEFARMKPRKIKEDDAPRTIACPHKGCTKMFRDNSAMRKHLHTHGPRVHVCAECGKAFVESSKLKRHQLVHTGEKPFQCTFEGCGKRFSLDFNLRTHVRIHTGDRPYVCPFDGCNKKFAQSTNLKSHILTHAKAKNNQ
UniProt Q5VZL5: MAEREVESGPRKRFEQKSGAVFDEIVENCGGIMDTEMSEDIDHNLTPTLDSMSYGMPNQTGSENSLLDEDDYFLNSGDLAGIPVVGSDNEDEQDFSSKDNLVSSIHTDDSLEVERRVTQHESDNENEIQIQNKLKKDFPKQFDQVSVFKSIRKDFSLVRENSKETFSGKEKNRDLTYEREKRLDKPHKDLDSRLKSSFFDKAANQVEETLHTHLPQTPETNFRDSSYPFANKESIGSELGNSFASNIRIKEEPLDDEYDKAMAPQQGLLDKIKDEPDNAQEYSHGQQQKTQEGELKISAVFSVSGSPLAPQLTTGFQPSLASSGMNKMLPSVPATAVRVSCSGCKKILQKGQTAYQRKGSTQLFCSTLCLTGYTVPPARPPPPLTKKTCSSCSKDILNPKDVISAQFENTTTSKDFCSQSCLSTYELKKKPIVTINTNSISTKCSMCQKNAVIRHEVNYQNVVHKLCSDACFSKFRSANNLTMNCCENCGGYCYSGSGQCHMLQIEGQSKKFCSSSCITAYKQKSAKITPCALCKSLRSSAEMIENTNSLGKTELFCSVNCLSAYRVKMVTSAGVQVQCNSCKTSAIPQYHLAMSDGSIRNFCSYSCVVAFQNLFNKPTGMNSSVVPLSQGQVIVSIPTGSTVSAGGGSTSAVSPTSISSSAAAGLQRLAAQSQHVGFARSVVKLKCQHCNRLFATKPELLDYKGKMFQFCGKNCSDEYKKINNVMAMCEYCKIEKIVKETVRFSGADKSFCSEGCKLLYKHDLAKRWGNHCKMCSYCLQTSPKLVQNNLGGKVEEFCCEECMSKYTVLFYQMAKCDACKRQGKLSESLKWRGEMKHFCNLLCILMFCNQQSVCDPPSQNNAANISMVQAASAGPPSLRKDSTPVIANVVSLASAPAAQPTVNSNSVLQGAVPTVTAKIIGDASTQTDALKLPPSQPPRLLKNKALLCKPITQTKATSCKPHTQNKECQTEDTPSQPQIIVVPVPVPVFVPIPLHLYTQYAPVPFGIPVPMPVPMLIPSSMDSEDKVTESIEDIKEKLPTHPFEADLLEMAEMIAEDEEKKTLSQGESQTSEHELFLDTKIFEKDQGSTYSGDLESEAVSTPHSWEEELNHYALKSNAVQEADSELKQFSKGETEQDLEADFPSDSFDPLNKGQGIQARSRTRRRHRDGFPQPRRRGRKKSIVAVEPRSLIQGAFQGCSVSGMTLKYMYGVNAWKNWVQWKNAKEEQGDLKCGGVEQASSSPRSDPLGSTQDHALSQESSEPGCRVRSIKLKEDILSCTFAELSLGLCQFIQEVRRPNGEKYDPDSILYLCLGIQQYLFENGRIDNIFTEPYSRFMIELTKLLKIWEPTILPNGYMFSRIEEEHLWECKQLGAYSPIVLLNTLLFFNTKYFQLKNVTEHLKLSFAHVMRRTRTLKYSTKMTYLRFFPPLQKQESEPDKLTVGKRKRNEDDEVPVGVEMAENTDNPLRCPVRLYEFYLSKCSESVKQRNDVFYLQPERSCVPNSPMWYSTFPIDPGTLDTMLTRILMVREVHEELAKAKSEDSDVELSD
UniProt Q9HAV4: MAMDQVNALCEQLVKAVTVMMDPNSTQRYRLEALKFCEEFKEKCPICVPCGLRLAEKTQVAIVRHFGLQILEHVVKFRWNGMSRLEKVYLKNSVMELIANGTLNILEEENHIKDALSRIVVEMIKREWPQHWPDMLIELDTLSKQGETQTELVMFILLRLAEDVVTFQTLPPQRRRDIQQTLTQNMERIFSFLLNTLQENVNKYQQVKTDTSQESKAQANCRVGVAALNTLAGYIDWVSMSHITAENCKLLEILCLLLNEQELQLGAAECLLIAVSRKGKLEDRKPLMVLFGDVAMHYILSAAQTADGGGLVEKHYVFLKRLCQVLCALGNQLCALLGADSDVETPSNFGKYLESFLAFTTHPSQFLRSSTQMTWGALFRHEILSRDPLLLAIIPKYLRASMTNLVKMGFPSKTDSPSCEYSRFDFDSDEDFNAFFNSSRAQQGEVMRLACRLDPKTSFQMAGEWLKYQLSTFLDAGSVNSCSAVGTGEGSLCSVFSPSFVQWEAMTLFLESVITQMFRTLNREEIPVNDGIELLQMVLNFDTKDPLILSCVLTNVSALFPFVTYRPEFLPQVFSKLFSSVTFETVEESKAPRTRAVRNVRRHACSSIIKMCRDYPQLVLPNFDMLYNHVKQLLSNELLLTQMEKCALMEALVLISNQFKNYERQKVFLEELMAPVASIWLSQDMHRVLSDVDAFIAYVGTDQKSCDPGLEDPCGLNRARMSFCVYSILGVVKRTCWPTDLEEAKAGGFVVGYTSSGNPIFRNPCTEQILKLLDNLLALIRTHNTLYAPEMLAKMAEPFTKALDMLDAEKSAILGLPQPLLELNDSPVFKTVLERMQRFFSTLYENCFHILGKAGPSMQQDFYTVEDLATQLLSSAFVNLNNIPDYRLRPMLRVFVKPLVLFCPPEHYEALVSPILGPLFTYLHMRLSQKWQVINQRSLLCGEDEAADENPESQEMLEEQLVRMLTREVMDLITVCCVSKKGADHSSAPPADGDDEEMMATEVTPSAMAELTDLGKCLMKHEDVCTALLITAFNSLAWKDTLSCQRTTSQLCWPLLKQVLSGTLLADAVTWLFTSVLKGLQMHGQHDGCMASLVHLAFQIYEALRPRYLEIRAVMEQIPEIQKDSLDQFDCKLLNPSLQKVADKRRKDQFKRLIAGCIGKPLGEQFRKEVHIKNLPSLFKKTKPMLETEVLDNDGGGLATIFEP
UniProt P62699: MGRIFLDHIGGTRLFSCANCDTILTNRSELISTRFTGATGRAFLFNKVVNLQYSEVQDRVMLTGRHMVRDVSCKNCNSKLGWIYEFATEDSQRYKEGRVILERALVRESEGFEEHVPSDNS
UniProt P63104: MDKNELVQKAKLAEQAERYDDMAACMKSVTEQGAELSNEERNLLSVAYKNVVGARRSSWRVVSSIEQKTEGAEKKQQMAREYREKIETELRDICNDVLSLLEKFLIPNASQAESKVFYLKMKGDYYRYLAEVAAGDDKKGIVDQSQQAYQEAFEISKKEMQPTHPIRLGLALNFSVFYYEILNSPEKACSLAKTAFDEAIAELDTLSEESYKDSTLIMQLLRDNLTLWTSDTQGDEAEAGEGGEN
UniProt P67809, whole entry, looked up: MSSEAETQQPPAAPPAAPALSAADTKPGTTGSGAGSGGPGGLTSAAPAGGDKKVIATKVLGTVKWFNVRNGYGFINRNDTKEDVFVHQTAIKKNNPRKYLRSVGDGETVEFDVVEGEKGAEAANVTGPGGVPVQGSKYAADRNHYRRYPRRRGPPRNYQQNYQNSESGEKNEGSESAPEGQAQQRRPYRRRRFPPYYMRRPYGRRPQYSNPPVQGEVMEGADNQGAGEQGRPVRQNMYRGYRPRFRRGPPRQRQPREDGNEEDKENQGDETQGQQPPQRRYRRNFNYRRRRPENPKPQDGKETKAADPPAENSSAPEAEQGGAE
UniProt O60315: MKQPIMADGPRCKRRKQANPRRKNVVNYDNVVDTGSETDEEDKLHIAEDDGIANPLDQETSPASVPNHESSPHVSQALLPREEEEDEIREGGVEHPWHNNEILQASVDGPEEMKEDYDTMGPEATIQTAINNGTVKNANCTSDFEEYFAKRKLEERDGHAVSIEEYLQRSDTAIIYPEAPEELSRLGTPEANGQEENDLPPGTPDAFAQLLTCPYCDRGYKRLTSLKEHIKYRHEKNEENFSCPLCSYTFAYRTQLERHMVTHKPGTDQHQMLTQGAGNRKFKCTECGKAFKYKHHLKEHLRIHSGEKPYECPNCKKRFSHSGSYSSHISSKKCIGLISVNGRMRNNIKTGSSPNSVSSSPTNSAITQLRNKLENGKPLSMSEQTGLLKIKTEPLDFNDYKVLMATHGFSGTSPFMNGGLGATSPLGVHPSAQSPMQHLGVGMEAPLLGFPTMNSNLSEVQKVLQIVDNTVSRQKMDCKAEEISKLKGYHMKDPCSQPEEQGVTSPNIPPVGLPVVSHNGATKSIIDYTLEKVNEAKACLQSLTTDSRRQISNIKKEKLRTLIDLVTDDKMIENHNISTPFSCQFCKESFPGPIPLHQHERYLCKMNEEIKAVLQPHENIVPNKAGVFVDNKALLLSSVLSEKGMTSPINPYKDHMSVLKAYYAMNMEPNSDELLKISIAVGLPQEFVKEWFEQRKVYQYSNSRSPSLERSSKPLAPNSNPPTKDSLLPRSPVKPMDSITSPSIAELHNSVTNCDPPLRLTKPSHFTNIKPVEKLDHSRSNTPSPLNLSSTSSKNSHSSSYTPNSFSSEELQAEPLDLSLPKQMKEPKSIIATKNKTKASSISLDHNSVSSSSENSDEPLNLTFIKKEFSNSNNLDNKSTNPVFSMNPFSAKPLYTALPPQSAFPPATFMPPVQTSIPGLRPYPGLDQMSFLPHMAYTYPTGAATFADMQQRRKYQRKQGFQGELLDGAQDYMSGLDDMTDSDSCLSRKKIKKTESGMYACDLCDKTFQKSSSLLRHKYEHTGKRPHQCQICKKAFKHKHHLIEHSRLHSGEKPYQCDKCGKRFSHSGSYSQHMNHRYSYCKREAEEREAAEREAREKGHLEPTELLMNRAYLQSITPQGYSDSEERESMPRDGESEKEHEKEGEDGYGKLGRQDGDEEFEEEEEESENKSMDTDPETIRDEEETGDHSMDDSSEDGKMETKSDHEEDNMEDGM
UniProt O43167: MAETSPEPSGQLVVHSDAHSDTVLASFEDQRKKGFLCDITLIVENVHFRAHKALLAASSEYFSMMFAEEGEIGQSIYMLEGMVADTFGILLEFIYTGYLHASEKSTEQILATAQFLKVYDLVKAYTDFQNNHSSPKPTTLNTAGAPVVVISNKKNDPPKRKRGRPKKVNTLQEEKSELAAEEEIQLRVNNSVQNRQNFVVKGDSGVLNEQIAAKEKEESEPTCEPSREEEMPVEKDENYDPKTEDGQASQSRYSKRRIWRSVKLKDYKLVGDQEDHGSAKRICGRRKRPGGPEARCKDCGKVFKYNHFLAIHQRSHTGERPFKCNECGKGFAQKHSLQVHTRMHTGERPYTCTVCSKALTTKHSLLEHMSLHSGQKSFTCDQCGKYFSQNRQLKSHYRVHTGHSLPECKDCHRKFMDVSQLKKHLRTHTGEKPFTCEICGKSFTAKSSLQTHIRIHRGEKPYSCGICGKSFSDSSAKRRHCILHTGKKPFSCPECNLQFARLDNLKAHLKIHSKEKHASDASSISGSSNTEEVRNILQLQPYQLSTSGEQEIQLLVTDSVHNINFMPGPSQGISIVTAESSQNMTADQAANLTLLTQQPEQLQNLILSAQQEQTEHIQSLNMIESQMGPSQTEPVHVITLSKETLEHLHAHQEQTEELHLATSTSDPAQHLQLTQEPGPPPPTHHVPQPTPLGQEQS

Experiments:
Assay in all cases: log2 fold change, soluble protein after heating vs DMSO (PISA); higher = thermal stabilisation; K562 cells, 10 uM, 30 min; active = over 0.2 and 3.5 SD of the protein, either way, in both replicates (recomputed)
erlotinib = compound: C#Cc1cccc(Nc2ncnc3cc(OCCOC)c(OCCOC)cc23)c1 [erlotinib]
Procedure, shortened: (§1)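 Quantification of soluble protein used TMTpro 16plex LC-MS/MS, with channel sums equalised. Samples were the supernatant after 21,000xg for 90 min of pooled aliquots from K562 cells (2×10^6 cells/mL) treated with 10 μM compound for 30 min, heated for 3 min over 48°C-58°C, and extracted in PBS with 0.5% NP-40 at 4°C. Values, from duplicates, describe thermal stability against control samples on a log2 fold-change scale.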

[1] = compound: C1=CC(=C(C=C1Cl)C2=NC3=NC=CN=C3C(=N2)NC4=CC=NC=C4)F
Procedure, shortened: as §1

[2] = compound: C1=CC(=CC=C1C2=NC3=C(N2)C=C(C=C3)C(=O)N)OC4=CC=C(C=C4)Cl
Procedure, shortened: as §1

[3] = compound: CC(C)(O)CC(=O)NCCn1ccc2ncnc(Nc3ccc(Oc4cccc(C(F)(F)F)c4)c(Cl)c3)c21
Procedure, shortened: as §1

[4] = compound: CC(C)C1=C2N=C(C=C(N2N=C1)NCC3=CC=CC=C3)NCCCCCCN
Procedure, shortened: as §1

[5] = compound: C/C(=N\NC(=O)C1=CC(=CC=C1)S(=O)(=O)N2CCOCC2)/C3=C(C=CC(=C3)Cl)O
Procedure, shortened: as §1

[6] = compound: C1=CC2=C(C=CC(=C2)/C=C\3/C(=O)NC(=NCC4=CC=CS4)S3)N=C1
Procedure, shortened: as §1

[7] = compound: C1=CC2=NC=CN=C2C=C1/C=C/3\C(=O)NC(=O)S3
Procedure, shortened: as §1

[8] = compound: C1=CC=C(C=C1)C2=NC(=C(N2)C3=CC=NC=C3)C4=CC(=C(C=C4)Cl)O
Procedure, shortened: as §1

[9] = compound: C1=CC=C2C(=C1)C3=NNC4=CC=CC(=C43)C2=O
Procedure, shortened: as §1

[10] = compound: C1CCN(C1)C(=O)NC2=CC=CC(=C2)NC3=NC=C(C(=N3)NCCC4=CN=CN4)Br
Procedure, shortened: as §1

[11] = compound: C1CN(CCC1(CC2=CC=C(C=C2)Cl)N)C3=NC=NC4=C3C=CN4
Procedure, shortened: as §1

IRAK-1-4 Inhibitor I = compound: C1COCCN1CCN2C3=CC=CC=C3N=C2NC(=O)C4=CC(=CC=C4)[N+](=O)[O-] [IRAK-1-4 Inhibitor I]
Procedure, shortened: as §1

ibrutinib = compound: C=CC(=O)N1CCC[C@@H](n2nc(-c3ccc(Oc4ccccc4)cc3)c3c(N)ncnc32)C1 [ibrutinib]
Procedure, shortened: as §1

[12] = compound: CC(=O)c1cnc2ccc(-c3cc(Cl)c(O)c(Cl)c3)nc2c1N[C@H]1CC[C@H](CN(C)C)CC1
Procedure, shortened: as §1

ralimetinib = compound: CC(C)(C)Cn1c(N)nc2ccc(-c3[nH]c(C(C)(C)C)nc3-c3ccc(F)cc3)nc21 [ralimetinib]
Procedure, shortened: as §1

[13] = compound: CC(C)C[C@@H](C=O)NC(=O)[C@H](CC(C)C)NC(=O)[C@H](CC(C)C)NC(=O)OCc1ccccc1
Procedure, shortened: as §1

pinometostat = compound: CC(C)N(C[C@H]1O[C@@H](n2cnc3c(N)ncnc32)[C@H](O)[C@@H]1O)[C@H]1C[C@@H](CCc2nc3cc(C(C)(C)C)ccc3[nH]2)C1 [pinometostat]
Procedure, shortened: as §1

[14] = compound: CC1=C(C2=C(C=C1)C(=O)C3=CC=CC=C3N2CCCN)C
Procedure, shortened: as §1

[15] = compound: CC1=C(C(CC(=O)N1)C2=CC=C(C=C2)C(F)(F)F)C(=O)NC3=C(C=C4C(=C3)C=NN4)F
Procedure, shortened: as §1

Measured: log2 fold change

XYLB (UniProt O75191)
inactive: erlotinib -0.187 | [1] 0.112 | [2] -0.018 | [3] -0.031 | [4] -0.14

ZFAND5 (UniProt O76080)
inactive: erlotinib -0.028 | [5] -0.018 | [1] 0.003 | [2] -0.013 | [6] -0.015 | [7] -0.017 | [8] -0.024 | [9] -0.055 | [10] 0.01 | [11] 0.119 | IRAK-1-4 Inhibitor I 0.057 | ibrutinib 0.03 | [12] -0.025 | ralimetinib 0.024 | [3] -0.019 | [4] 0.072 | [13] 0.007 | pinometostat -0.047 | [14] -0.095

YY1 (UniProt P25490)
inactive: erlotinib -0.019 | [5] 0.072 | [1] 0.073 | [2] 0.03 | [6] -0.014 | [7] 0.004 | [8] -0.053 | [9] -0.07 | [10] -0.065 | [11] 0.066 | IRAK-1-4 Inhibitor I -0.026 | ibrutinib -0.032 | [12] -0.084 | ralimetinib 0.002 | [3] -0.026 | [13] 0.091 | pinometostat 0.02
active: [4] -0.24 | [14] -0.433

ZMYM4 (UniProt Q5VZL5)
inactive: erlotinib 0.077 | [1] 0.176 | [2] -0.034 | [7] -0.028 | [8] 0.018 | [10] 0.071 | [11] -0.091 | IRAK-1-4 Inhibitor I -0.165 | ibrutinib -0.137 | ralimetinib -0.035 | [3] 0.053 | [4] 0.006 | [13] 0.24 | pinometostat 0.125 | [15] -0.01 | [14] 0.284

XPO5 (UniProt Q9HAV4)
inactive: erlotinib 0.011 | [5] 0.103 | [1] 0.105 | [2] -0.005 | [6] 0.011 | [7] 0.016 | [8] 0.023 | [9] -0.019 | [10] -0.024 | [11] -0.001 | IRAK-1-4 Inhibitor I -0.004 | ibrutinib -0.027 | [12] 0.032 | ralimetinib 0.001 | [3] -0.141 | [4] -0.21 | [13] -0.021 | pinometostat -0.01
active: [14] -0.204

YPEL5 (UniProt P62699)
inactive: erlotinib 0.049 | [5] 0.032 | [1] -0.028 | [2] -0.021 | [6] -0.021 | [7] -0.002 | [8] 0.213 | [9] -0.158 | IRAK-1-4 Inhibitor I -0.093 | ibrutinib 0.054 | [12] -0.173 | ralimetinib -0.111 | [3] 0.041 | [4] -0.083 | [13] 0.05 | pinometostat 0.068

YWHAZ (UniProt P63104)
inactive: erlotinib 0.011 | [5] 0.061 | [1] 0.081 | [2] 0.011 | [6] -0.154 | [7] -0.012 | [8] 0.096 | [9] 0.045 | [10] 0.011 | [11] 0.059 | IRAK-1-4 Inhibitor I 0.105 | ibrutinib 0.019 | [12] 0.06 | ralimetinib 0.145 | [3] 0.027 | [4] 0.052 | [13] -0.098 | pinometostat -0.026 | [14] -0.009

YBX1 (UniProt P67809)
active: [14] -0.637
inactive: erlotinib -0.173 | [5] -0.242 | [1] -0.273 | [2] -0.033 | [6] -0.115 | [7] -0.009 | [8] -0.053 | [9] -0.051 | [10] 0.103 | [11] -0.159 | IRAK-1-4 Inhibitor I -0.117 | ibrutinib 0.103 | [12] 0.155 | ralimetinib 0.082 | [3] 0.162 | [4] 0.038 | [13] 0.083 | pinometostat 0.053

ZEB2 (UniProt O60315)
active: [14] -0.476
inactive: erlotinib 0.101 | [1] -0.099 | [2] 0.029 | [7] -0.177 | [8] -0.053 | [10] -0.106 | [11] -0.149 | IRAK-1-4 Inhibitor I 0.02 | ibrutinib 0.029 | ralimetinib -0.075 | [3] 0.034 | [4] -0.187 | [13] 0.131 | pinometostat 0.06

ZBTB24 (UniProt O43167)
inactive: erlotinib -0.208 | [5] -0.28 | [1] -0.467 | [2] -0.001 | [6] -0.142 | [8] 0.309 | [9] -0.026 | [10] 0.14 | [11] -0.234 | [12] 0.094 | ralimetinib 0.317 | [3] 0.027 | [4] 0.038 | [13] 0.17 | [14] -0.197
